Earlier results as cited in patent publication US10813944B2, “Cyclodextrins as procoagulants” (STICHTING SANQUIN BLOEDVOORZIENING, priority 2016, dated 2020).
Some entries share one result that the patent states for a list of compounds.

Settings: background statement; cited from earlier work

CC1CNc2c(cccc2S(=O)(=O)N[C@@H](CCCNC(=N)N)C(=O)N2CC[C@@H](C)C[C@@H]2C(=O)O)C1 (stereo partly shown) [argatroban]
half-life: 30 to 50 min
